Reference: the supplement of paper PMC5393889
This is one part of the list.

What follows are compounds tested on Caenorhabditis elegans N2 (assay: aldicarb interaction hit call (worm growth perturbed in combination with 10 uM aldicarb in both replicates, no effect as single agent) (binary (1 = interacts)); higher = interacts with aldicarb (growth perturbed)). Conditions: first compound 1.5 µM; aldicarb concentration 10 µM; 6 days; 20 °C.
Experimental: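 C. elegans liquid growth assay in 96-well plates: about 40 synchronized L1 worms in NGM with HB101 E. coli, 6 days at 20 C, 0.6% DMSO. Each wactive compound was tested at 1.5 uM plus 10 uM aldicarb, and alone in DMSO controls. Viable worms were scored under a dissection microscope in two replicates. A hit is a compound that perturbed growth with aldicarb in both replicates but had no obvious effect as a single agent. Only compounds that overgrew as single agents are kept.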
In the case of `CN1CCN(c2ccc3c(ccc4c5ccccc5[nH]c34)n2)CC1` [wact-612] + CNC(=O)O/N=C/C(C)(C)SC [aldicarb], the “aldicarb interaction hit call” value is reported as inactive: 0.
With `N/C(=N\OC(=O)c1ccccc1Br)c1ccncc1` [wact-453] + CNC(=O)O/N=C/C(C)(C)SC [aldicarb] the “aldicarb interaction hit call” value was inactive: 0.
For `Ic1ccccc1-c1nc(-c2ccccc2)no1` [wact-178] + CNC(=O)O/N=C/C(C)(C)SC [aldicarb], the “aldicarb interaction hit call” value was inactive: 0.
`CCCc1ccc(-c2nc(-c3cccnc3)no2)cc1` [wact-10] + CNC(=O)O/N=C/C(C)(C)SC [aldicarb] was tested, and the “aldicarb interaction hit call” value was inactive: 0.
In the case of `CCOc1ccc(C(=O)/C=C/c2ccc(F)cc2)cc1` [wact-414] + CNC(=O)O/N=C/C(C)(C)SC [aldicarb], the “aldicarb interaction hit call” value is reported as active: 1.
In the case of `CC(NC(=O)c1nc(-c2ccc(Cl)cc2)no1)c1ccccc1` (stereo not given) [wact-586] + CNC(=O)O/N=C/C(C)(C)SC [aldicarb], the “aldicarb interaction hit call” value is reported as inactive: 0.
`Cn1cc(CN2CCCC(C(=O)c3ccc(-c4ccccc4)c(F)c3)C2)cn1` (stereo not given) [wact-340] + CNC(=O)O/N=C/C(C)(C)SC [aldicarb] was tested, and the “aldicarb interaction hit call” value was inactive: 0.
In the case of `Nc1ccc2oc(-c3ccc(Cl)c(Cl)c3)nc2c1` [wact-386] + CNC(=O)O/N=C/C(C)(C)SC [aldicarb], the “aldicarb interaction hit call” value is reported as inactive: 0.
With `CC1CN(c2ccc([N+](=O)[O-])cc2)CCN1C(=O)c1ccccc1F` (stereo not given) [wact-452] + CNC(=O)O/N=C/C(C)(C)SC [aldicarb] the “aldicarb interaction hit call” value was inactive: 0.
In the case of `Br.Clc1ccc(Nc2nc(-c3ccc(I)cc3)cs2)cc1` [wact-393] + CNC(=O)O/N=C/C(C)(C)SC [aldicarb], the “aldicarb interaction hit call” value is reported as active: 1.
With `Cc1cc(C(F)F)n2ncc(C(=O)Nc3cnn(Cc4ccc(Cl)cc4Cl)c3)c2n1` [wact-87] + CNC(=O)O/N=C/C(C)(C)SC [aldicarb] the “aldicarb interaction hit call” value was inactive: 0.
In the case of `Cc1ccccc1C(=O)NCCSC1CCCCC1` [wact-494] + CNC(=O)O/N=C/C(C)(C)SC [aldicarb], the “aldicarb interaction hit call” value is reported as inactive: 0.
`Fc1ccc(CN2CCCN(Cc3nc(-c4ccc(C(F)(F)F)cc4)no3)CC2)cc1` [wact-313] + CNC(=O)O/N=C/C(C)(C)SC [aldicarb] was tested, and the “aldicarb interaction hit call” value was inactive: 0.
`Clc1ccc(N2CCN(/N=C\c3ccccn3)CC2)cc1` [wact-220] + CNC(=O)O/N=C/C(C)(C)SC [aldicarb] was tested, and the “aldicarb interaction hit call” value was inactive: 0.
With `Fc1cccc(NC2CCCN(Cc3cnn(-c4ccccc4)c3)C2)c1` (stereo not given) [wact-274] + CNC(=O)O/N=C/C(C)(C)SC [aldicarb] the “aldicarb interaction hit call” value was inactive: 0.
For `CN(CC1CC=CCC1)CC1CCN(CCc2ccc(F)cc2)CC1` (stereo not given) [wact-303] + CNC(=O)O/N=C/C(C)(C)SC [aldicarb], the “aldicarb interaction hit call” value was inactive: 0.
In the case of `c1cnc(SCCCOc2ccc3ccccc3c2)nc1` [wact-525] + CNC(=O)O/N=C/C(C)(C)SC [aldicarb], the “aldicarb interaction hit call” value is reported as inactive: 0.
In the case of `CCC(=O)c1ccc(OCc2ccc(F)cc2)cc1` [wact-542] + CNC(=O)O/N=C/C(C)(C)SC [aldicarb], the “aldicarb interaction hit call” value is reported as inactive: 0.
For `Cc1cccc(-c2ccc(NC(=O)C3CCN(Cc4c(C)nn(C(C)C)c4C)CC3)cc2)c1` [wact-265] + CNC(=O)O/N=C/C(C)(C)SC [aldicarb], the “aldicarb interaction hit call” value was inactive: 0.
With `O=C(Nc1cccc(Cl)c1)N1CCN(c2ccc([N+](=O)[O-])cc2)CC1` [wact-31] + CNC(=O)O/N=C/C(C)(C)SC [aldicarb] the “aldicarb interaction hit call” value was inactive: 0.
In the case of `O=C(c1ccc(-c2ccccc2)cc1)N1CCC(c2ccccc2)C1` (stereo not given) [wact-101] + CNC(=O)O/N=C/C(C)(C)SC [aldicarb], the “aldicarb interaction hit call” value is reported as inactive: 0.
In the case of `O=C(c1cc(COc2ccc3ncccc3c2)on1)N1C[C@H]2CC[C@H]1C2` [wact-290] + CNC(=O)O/N=C/C(C)(C)SC [aldicarb], the “aldicarb interaction hit call” value is reported as inactive: 0.
With `O=C(NCc1ccc(Cl)cc1Cl)c1ccccc1F` [wact-557] + CNC(=O)O/N=C/C(C)(C)SC [aldicarb] the “aldicarb interaction hit call” value was inactive: 0.
In the case of `CN(Cc1ccccc1)c1cc(-c2ccccc2)ncn1` [wact-189] + CNC(=O)O/N=C/C(C)(C)SC [aldicarb], the “aldicarb interaction hit call” value is reported as inactive: 0.
With `N/C(=N\OC(=O)c1ccccc1Cl)c1ccccc1` [wact-34] + CNC(=O)O/N=C/C(C)(C)SC [aldicarb] the “aldicarb interaction hit call” value was inactive: 0.
`O=C(Nc1ccc(C(F)(F)F)cc1)C1CCN(C(=O)c2ccc([N+](=O)[O-])cc2)CC1` [wact-222] + CNC(=O)O/N=C/C(C)(C)SC [aldicarb] was tested, and the “aldicarb interaction hit call” value was inactive: 0.
With `N/C(=N\OC(=O)c1cccs1)c1ccccc1` [wact-403] + CNC(=O)O/N=C/C(C)(C)SC [aldicarb] the “aldicarb interaction hit call” value was inactive: 0.
`COc1ccc(/C=C/C(=O)c2ccccc2O)cc1` [wact-588] + CNC(=O)O/N=C/C(C)(C)SC [aldicarb] was tested, and the “aldicarb interaction hit call” value was inactive: 0.
With `FC(F)(F)c1ccc(-c2noc(CN3CCN(Cc4cccnc4)CC3)n2)cc1` [wact-246] + CNC(=O)O/N=C/C(C)(C)SC [aldicarb] the “aldicarb interaction hit call” value was inactive: 0.
With `Cc1ccc(C(=O)O/N=C(\N)c2ccccc2)c(Cl)c1` [wact-484] + CNC(=O)O/N=C/C(C)(C)SC [aldicarb] the “aldicarb interaction hit call” value was inactive: 0.
For `Fc1ccc(N2CCN(C3CCC(c4ccccc4)CC3)CC2)cc1` (stereo not given) [wact-49] + CNC(=O)O/N=C/C(C)(C)SC [aldicarb], the “aldicarb interaction hit call” value was inactive: 0.
`O=C(c1cc(COc2ccc(F)cc2Cl)on1)N1CCC(c2ccncc2)CC1` [dafadine-B] + CNC(=O)O/N=C/C(C)(C)SC [aldicarb] was tested, and the “aldicarb interaction hit call” value was inactive: 0.
With `Cc1ccc(/C(N)=N/OC(=O)c2ccccc2)cc1` [wact-454] + CNC(=O)O/N=C/C(C)(C)SC [aldicarb] the “aldicarb interaction hit call” value was inactive: 0.
In the case of `O=C1CC(N2CCN(c3ccc([N+](=O)[O-])cc3)CC2)C(=O)N1c1ccccc1F` (stereo not given) [wact-56] + CNC(=O)O/N=C/C(C)(C)SC [aldicarb], the “aldicarb interaction hit call” value is reported as inactive: 0.
`c1ccc(-c2nc3c(c(-c4ccccc4)n2)CCCC3)cc1` [wact-32] + CNC(=O)O/N=C/C(C)(C)SC [aldicarb] was tested, and the “aldicarb interaction hit call” value was inactive: 0.
For `CCN1CCN(c2ccc(NC(=O)c3ccco3)cc2Cl)CC1` [wact-99] + CNC(=O)O/N=C/C(C)(C)SC [aldicarb], the “aldicarb interaction hit call” value was inactive: 0.
In the case of `O=C(c1cccc(Br)c1)N1CCN(c2ccnc3cc(Cl)ccc23)CC1` [wact-116] + CNC(=O)O/N=C/C(C)(C)SC [aldicarb], the “aldicarb interaction hit call” value is reported as inactive: 0.
For `COC(=O)C1=C(C)NC2=C(C(=O)CC(c3ccc(F)cc3)C2)C1c1coc2ccc(Cl)cc2c1=O` (stereo not given) [wact-527] + CNC(=O)O/N=C/C(C)(C)SC [aldicarb], the “aldicarb interaction hit call” value was inactive: 0.
For `O=C(NCCCCc1ccccc1)c1cccc(Br)c1` [wact-399] + CNC(=O)O/N=C/C(C)(C)SC [aldicarb], the “aldicarb interaction hit call” value was inactive: 0.
For `Fc1ccc(CN2CCCC3(CCN(CCCC(F)(F)F)C3)C2)cc1F` (stereo not given) [wact-338] + CNC(=O)O/N=C/C(C)(C)SC [aldicarb], the “aldicarb interaction hit call” value was inactive: 0.
